Results deposited as PubChem BioAssay AID504764 (Drosophila RNAi Screening Center, 2011).
Assay: 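Knock-downs that raise or lower a Notch target reporter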 (primary screen). Cell system: Drosophila Kc167 cells. Reagent: long dsRNA against Drosophila genes. Timing: about 5 days (4 days dsRNA, then 24 h after transfection). Treatment: transfection of constitutively active membrane-tethered Notch lacking the extracellular domain, read 24 h later. Read-out: 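Light from a Notch-responsive E(spl)m3 luciferase reporter under active Notch, with control-promoter and no-Notch reporter wells to normalise; raw counts from paired wells a and b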. Scale: induced reporter light, run 1, well a and induced reporter light, run 1, well b: higher = more light from the Notch target reporter with active Notch; control promoter light, run 1, well a and control promoter light, run 1, well b: higher = more light from the viral control promoter (cell number, transfection, viability); uninduced reporter light, run 1, well a: higher = more light from the Notch target reporter without active Notch. Active means: 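Hit if the duplicate-averaged log2 ratio of induced to control-promoter light gives a plate-wise z beyond ±2, or induced to uninduced beyond ±1.8; weak-control or discordant-duplicate wells dropped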. Meaning of the calls: active = modifier hit (raised or lowered Notch signal); inactive = not a hit.
The screen tested about 22,000 reagents; below is an unselected part of those with a known target gene and a result. In the full data, 403 (1.9%) got an active call. 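Unnormalised raw counts per well; ratio z-scores behind the hit calls and whether each hit raises or lowers signal are not deposited.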 Names joined by + are all predicted targets of the reagent. The record does not give: the amount of reagent.

no.	gene	dsRNA	induced reporter light, run 1, well a	induced reporter light, run 1, well b	control promoter light, run 1, well a	control promoter light, run 1, well b	uninduced reporter light, run 1, well a	call
1	Larp7 (La related protein 7)	DRSC18798	58920	69955	77970	1.01e5	5155	inactive
2	Peritrophin-15b	DRSC02266	1.20e5	1.49e5	81715	1.06e5	18340	inactive
3	CG8272	DRSC07134	64965	55475	52715	47030	5095	inactive
4	Ack-like (Activated Cdc42 kinase-like)	DRSC07500	1.46e5	1.57e5	1.52e5	1.40e5	13120	inactive
5	Lcch3 (Ligand-gated chloride channel homolog 3)	DRSC20257	1.72e5	1.64e5	1.95e5	1.52e5	10255	inactive
6	Mabi (Mabiki)	DRSC02489	2.13e5	2.17e5	1.60e5	1.81e5	16765	inactive
7	Atg9 (Autophagy-related 9)	DRSC06848	1.01e5	1.23e5	1.92e5	1.73e5	8915	inactive
8	wde (windei)	DRSC05955	85820	83310	65550	60960	6440	inactive
9	CG9590	DRSC16506	1.12e5	2.68e5	3.09e5	4.43e5	15865	inactive
10	spz4 (spatzle 4)	DRSC02410	1.02e5	1.27e5	70560	1.04e5	15530	inactive
11	Lis-1 (Lissencephaly-1)	DRSC07459	1.06e5	99235	83255	1.29e5	6770	inactive
12	CG6225	DRSC15996	90400	95580	1.05e5	74975	6300	inactive
13	chic (chickadee)	DRSC03507	2.01e5	1.50e5	2.02e5	1.87e5	9175	inactive

Only “control promoter light, run 1, well b” (2 entries from above):
Peritrophin-15b [DRSC02266] = 1.06e5
CG8272 [DRSC07134] = 47030

More records:
no.	gene	dsRNA	induced reporter light, run 1, well a	induced reporter light, run 1, well b	control promoter light, run 1, well a	control promoter light, run 1, well b	uninduced reporter light, run 1, well a	call
14	CG7457	DRSC10849	1.81e5	1.64e5	1.90e5	1.83e5	8515	inactive
15	CG4497	DRSC02754	1.86e5	1.68e5	1.78e5	1.83e5	14175	inactive
16	His1:CG33816 + His1:CG33828 + His1:CG33819 + 21 more	DRSC21266	45730	64735	70760	66545	6420	inactive
17	Picot	DRSC07508	1.39e5	1.35e5	2.58e5	2.40e5	9885	inactive
18	CG4382	DRSC02743	1.36e5	1.75e5	71260	93710	19175	inactive
19	CG10700	DRSC02096	56510	42850	44455	33515	1935	inactive
20	CG17726	DRSC15255	1.95e5	1.69e5	2.58e5	2.83e5	13160	inactive
